According to PubChem BioAssay AID493014 (National Center for Advancing Translational Sciences (NCATS), 2011):
The list shows a part of the results. These are further read-outs of the screen, such as a control signal, another cell line or another target. No call is given for them. Most of these compounds were active or inconclusive in the main read-out, so they are no random draw. Potencies come from curve fits of mixed quality, noted in brackets.

Assay: qHTS Assay to Find Inhibitors of Chronic Active B-Cell Receptor Signaling
Conditions: ABC-DLBCL IkBa-CBG/CBR reporter, luminescence ratio (green luciferase fused to IkBa over red control in TMD8 lymphoma cells), 4 h
Outline: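 TMD8 ABC-DLBCL cells carrying doxycycline-inducible green luciferase fused to IkappaBalpha plus unfused red luciferase were exposed to compounds (up to 46 uM) for 4 hrs at 37C. Activity came from the overlap-corrected green/red luminescence ratio.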

[1] = measured here: CBR red luminescence, cell number

Question: Which AC50 [1] does the source give for O=C(CN1CCOCCOCCOCCOCC1)Nc1ccccc1 here?
Answer: Its AC50 is 14.6 µM [falling, partial curve].

Question: With Cc1ccc2c(c1)oc(=O)n2CC(=O)c1ccccc1 as the molecule, how does the AC50 [1] read?
Answer: The AC50 was 0.447 µM [rising, full curve, poor fit].

Question: With COc1cc(NC(=O)CSc2c3c(nc4ccccc24)CCC3)cc(OC)c1OC as the molecule, how does the AC50 [1] read?
Answer: Its AC50 is 18.4 µM [falling, single point].

Question: With Cc1c(C(=O)NCc2cccnc2)sc2nc(-c3ccc(F)cc3)cn12 as the molecule, how does the AC50 [1] read?
Answer: Its AC50 is 29.1 µM [falling, single point].

Question: Which AC50 [1] does the source give for Cc1nc(Cc2nnc(SC(C)C(=O)N3c4ccccc4NC(=O)C3(C)C)o2)cs1 (centres undefined) here?
Answer: The AC50 was 0.164 µM [falling, full curve, poor fit].

Question: With Cc1cccc2c(N=Nc3ccc(S(=O)(=O)Nc4ccc(Cl)cc4)cc3[N+](=O)[O-])c(O)[nH]c12 as the molecule, how does the AC50 [1] read?
Answer: The AC50 was 0.708 µM [rising, full curve, poor fit].

Question: Which AC50 [1] does the source give for COC(=O)C(C)N(C(=O)c1ccc(Cl)cc1)c1c(C)cccc1C (centres undefined) here?
Answer: Its AC50 is 25.9 µM [falling, single point].

Question: Which AC50 [1] does the source give for CC1c2[nH]c3ccccc3c2C[C@H]2C(=O)N(CCO)CC(=O)N12 (some centres undefined) here?
Answer: Its AC50 is 35.5 µM [rising, single point].

Question: For COc1cc(C(=O)Nc2ccncc2)c([N+](=O)[O-])cc1OC, which AC50 [1] is on record?
Answer: Its AC50 is 2.82 µM [falling, partial curve, poor fit].

Question: With O=C(CN1CCN(c2ccccn2)CC1)Nc1ccc(F)cc1F as the molecule, how does the AC50 [1] read?
Answer: Its AC50 is 8.91 µM [falling, partial curve, poor fit].

Question: With CCCCC(=O)Nc1nc2ccc(C(=O)OC)cc2s1 as the molecule, how does the AC50 [1] read?
Answer: Its AC50 is 7.08 µM [falling, partial curve].

Question: For O=C1CSC(=NC2CCCCC2)N1, which AC50 [1] is on record?
Answer: The AC50 was 0.651 µM [falling, full curve, poor fit].

Question: Which AC50 [1] does the source give for Cc1cc(C)c2c(N)c(C(=O)NCc3ccco3)sc2n1 here?
Answer: The AC50 was 16.4 µM [falling, partial curve, poor fit].

Question: With CC1CCN(Cc2nc(-c3ccccc3)no2)CC1 as the molecule, how does the AC50 [1] read?
Answer: Its AC50 is 3.98 µM [rising, full curve, poor fit].

Question: With O=C(O)CC/C(=N/NC(=O)CNC(=O)Cc1ccc(Cl)cc1)c1ccccc1 as the molecule, how does the AC50 [1] read?
Answer: The AC50 was 4.47 µM [falling, partial curve, poor fit].

Question: For CCc1n[nH]c(=S)n1/N=C/C(C)=C\c1ccccc1, which AC50 [1] is on record?
Answer: The AC50 was 12.6 µM [rising, partial curve, poor fit].

Question: For COc1ccc(C(=O)N2CCN(c3ccc(NC(=O)Cc4ccccc4)cc3)CC2)cc1, which AC50 [1] is on record?
Answer: The AC50 was 3.98 µM [falling, partial curve, poor fit].

Question: With COc1ccc2c(=O)c3c(=O)n(Cc4ccco4)c(-c4ccco4)nc3oc2c1 as the molecule, how does the AC50 [1] read?
Answer: Its AC50 is 5.8 µM [falling, partial curve, poor fit].

Question: With O=C(CNC(=O)c1ccccc1Cl)N/N=C/c1ccc([N+](=O)[O-])s1 as the molecule, how does the AC50 [1] read?
Answer: Its AC50 is 29.1 µM [falling, single point].

Question: Which AC50 [1] does the source give for COc1ccc(NC(=O)c2sccc2OS(=O)(=O)N(C)C)cc1 here?
Answer: The AC50 was 14.1 µM [rising, single point].

Question: Which AC50 [1] does the source give for CN1C(=O)/C(=C/c2ccccc2Cl)Sc2ccc(C(=O)N3CCCC3)cc21 here?
Answer: Its AC50 is 10 µM [falling, partial curve, poor fit].

Question: Which AC50 [1] does the source give for Cc1cc(N2CCCCC2)nc(SCC(=O)c2ccccc2)n1 here?
Answer: The AC50 was 17.8 µM [falling, single point].

Question: For O=C(Nc1cccc(S(=O)(=O)N2CCCCC2)c1)C1CCCC1, which AC50 [1] is on record?
Answer: The AC50 was 0.164 µM [rising, full curve, poor fit].

Question: For CC(C)(C)CC(=O)Nc1nnc(-c2cccs2)s1, which AC50 [1] is on record?
Answer: Its AC50 is 0.00461 µM [rising, full curve, poor fit].

Question: With CCN(CC)S(=O)(=O)c1cc(-c2nnc(-c3ccc(Br)cc3)o2)ccc1Br as the molecule, how does the AC50 [1] read?
Answer: The AC50 was 32.6 µM [rising, single point].

Question: For CS(=O)(=O)N1N=C(c2ccco2)CC1c1ccccc1Cl (centres undefined), which AC50 [1] is on record?
Answer: The AC50 was 35.5 µM [rising, single point].

Question: With O=C(CSc1nc2ncc(Cl)cc2[nH]1)NCCc1ccc(F)cc1 as the molecule, how does the AC50 [1] read?
Answer: Its AC50 is 12.6 µM [falling, partial curve, poor fit].

Question: For CSc1ccccc1NC(=O)Cc1ccc(Br)cc1, which AC50 [1] is on record?
Answer: Its AC50 is 8.2 µM [falling, partial curve].

Question: Which AC50 [1] does the source give for C/C(=N\Nc1cccc(C(=O)O)c1)c1ccc(Cl)s1 here?
Answer: Its AC50 is 0.141 µM [falling, full curve, poor fit].

Question: Which AC50 [1] does the source give for O=C(Nc1ccc(Cl)cc1)N1CCCN(Cc2ccccc2F)C1 here?
Answer: Its AC50 is 6.51 µM [rising, full curve, poor fit].

Question: Which AC50 [1] does the source give for C/C(=N\NC(=S)Nc1ccccc1C)c1ccc(O)cc1 here?
Answer: Its AC50 is 35.5 µM [falling, single point].

Question: And the AC50 (measured here: IkBa-CBG green luminescence)?
Answer: The AC50 was 35.5 µM [falling, single point].

Question: With O=C(NCc1cccc(Cl)c1)c1ccc(-c2csnn2)cc1 as the molecule, how does the AC50 [1] read?
Answer: Its AC50 is 11.2 µM [falling, partial curve, poor fit].

Question: With C#CCOCCOCCOCCNc1nc(N2CCN(C(=O)CCCCCCCCCCNC(=O)[C@H](CCCCN)n3cc(CCO)nn3)CC2)nc(N2CCN(C(=O)CCCCCCCCCCNC(=O)[C@H](CCCCN)n3cc(C[C@@H](C)CC)nn3)CC2)n1 as the molecule, how does the AC50 [1] read?
Answer: Its AC50 is 29.1 µM [rising, single point].
